Assay results as given in PubChem BioAssay AID624297 (National Center for Advancing Translational Sciences (NCATS), 2012).
In all, about 340,000 compounds went through this assay and about 6,200 (1.8%) were called active. Inconclusive means that the source gave no clear call. Such entries were picked first, then a sample of the others. Calls follow the shape of the dose curve; as a rule, active = well fitted activation curve with a large enough effect; inconclusive = small, poorly fitted or top-dose-only effect; inactive = no such curve, though single readings can be large or run the other way. Where the call is inconclusive, the potency comes from a doubtful curve fit.

Test: A quantitative high throughput screen for small molecules that induce DNA re-replication in SW480 colon adenocarcinoma cells. Also: nearly all actives have a fitted effect of over 55% in size.
Details: Hoechst DNA content imaging, 48 h; series mostly up to 46.1 µM
From the text: H Molecular Libraries Probe Production Network [MLPCN] NIH Chemical Genomics Center [NCGC] MLPCN Grant: Fast Track K99 CA136555 Assay Provider: Melvin DePamphilis, NICHD, NIH Assay Overview Eukaryotic cells normally restrict genome duplication to once per cell division. When this process is aberrant, DNA re-replication occurs when cells reinitiate DNA replication before the first round of replication is complete. DNA re-replication induces the DNA damage response, arrests cell proliferation, and triggers apoptosis. The cell cycle components cyclin A, Cdt-1, Cdc6 and geminin are critical regulators of this process and their misregulation results in DNA re-replication in normal and cancer cells. To identify compounds that induce re-replication in normal cells, an image-based assay was used to measure DNA content of nuclei, as detected by the fluorescent DNA binding dye, Hoechst. Cell nuclei were imaged by a fluorescence scanning plate imager and compounds that induce DNA re-replication were identified by the increase of nuclei with elevated fluorescence intensity
For screening, 250 cells in 5 uL/well were dispensed into black clear 1536-well plates (Aurora) using a solenoid-based dispenser. Following transfer of 23 nL compound or DMSO vehicle by a pin tool, the plates were incubated 48 hr at 37 C and 5% CO2. After addition of 1 uL/well Hoescht stain, the plates were incubated 40 min at 37 C, 5% CO2 and total intensity of fluorescent objects (nuclei) were enumerated by an Acumen Explorer Ex3 (TTP LabTech) fluorescence scanning plate imager (405 nm excitation, 500-530 nm emission). Keywords: NIH Roadmap, MLPCN, MLI, MLSMR, qHTS, NCGC, DNA replication, cancer
Potency is read from the fitted curve at half-maximal effect.

| SMILES | Potency |
| --- | --- |
| O=C(N/C(=C/c1cccnc1)C(=O)N1CCCCCC1)c1cccc(Br)c1 | inactive |
| C/C(=N\N=C(N)N)c1cc(Cl)ccc1Cl | inconclusive: 29.1 µM [activator, single point] |
| COc1ccccc1/C=C1\CCCC2=C1Nc1nnnn1C2c1ccccc1OC (stereo not given) | inconclusive: 16.4 µM [activator, single point] |
| S=C(N/N=C/c1ccc(Cl)c(Cl)c1)Nc1ccccc1Cl | inconclusive: 23.1 µM [activator, partial curve, poor fit] |
| N#CCC(=O)Nc1nc(-c2ccc3c(c2)OCCO3)cs1 | inconclusive: 25.9 µM [activator, single point] |
| O=C(O)c1ccc2c(c1)C(=O)N(c1ccc(OCc3ccccc3)cc1)C2=O | inconclusive: 20.6 µM [activator, single point] |
| Cc1cccc(/C=C(\c2nc3ccccc3[nH]2)S(=O)(=O)c2ccccc2)c1 | inconclusive: 2.59 µM [activator, full curve, poor fit] |
| CS(=O)(=O)N1CCC(C(=O)Nc2cccc(Br)c2)CC1 | inconclusive: 29.1 µM [activator, single point] |
| CC(C)CN1C(=O)c2ccc(C(=O)NCc3ccccn3)cc2C1=O | inconclusive: 0.164 µM [activator, full curve, poor fit] |
| COc1ccccc1-n1cnc(N)c1C(=O)c1ccccc1 | active: 14.6 µM |
| CCOc1ccc2nc(NC(=O)C3CCN(c4cnccn4)CC3)sc2c1 | inconclusive: 18.4 µM [activator, partial curve, poor fit] |
| OC(CNC1CCCc2ccccc21)COc1ccc2ccccc2c1 (stereo not given) | inconclusive: 29.1 µM [activator, single point] |
| CC(C)(C)N1C(=O)[C@H]2[C@@H](c3ccc(Br)cc3)N3C(=O)N(c4cccc(F)c4)C(=O)[C@@]3(C)[C@H]2C1=O | inconclusive: 23.1 µM [activator, partial curve, poor fit] |
| COc1ccc(S(=O)(=O)N2CCCCC2)cc1 | inconclusive: 0.164 µM [activator, full curve, poor fit] |
| Cc1cc(N/N=C/c2ccccc2)nc(NCc2ccccc2)n1 | inconclusive: 18.4 µM [activator, single point] |
| COc1ccccc1N1CCN(CC(=O)Nc2nccs2)CC1 | inactive |
| CS/C(=N\S(=O)(=O)c1cccs1)Nc1ccc(Br)cc1F | inactive |
| O=C(Cc1cccc2ccccc12)N/N=C/c1ccc(O)c([N+](=O)[O-])c1 | inactive |
| Cc1cccc(NC(=O)c2oc(=O)c3ccccc3c2-c2ccccc2)c1C | inconclusive: 29.1 µM [activator, single point] |
| COc1cc(/C=N/NC(=O)c2cc(C34CC5CC(CC(C5)C3)C4)[nH]n2)ccc1O | inactive |
| N#Cc1c(N)c(C#N)c(-c2ccc3c(c2)OCO3)c2c1CCCC2 | inactive |
| CCCCc1ccc(NC(=O)CSc2nc(=O)n(CCN(CC)CC)c3c2CCCC3)cc1 | inconclusive: 29.1 µM [activator, single point] |
| O=C(NNC(=S)Nc1cccc(C(F)(F)F)c1)c1cccc(Cl)c1 | inconclusive: 25.9 µM [activator, single point] |
| Cc1ccc2nc3c(cc2c1)c(NC(=O)c1ccco1)nn3CC(C)C | inconclusive: 14.6 µM [activator, partial curve] |

| SMILES | Potency |
| --- | --- |
| COc1cccc(/C=C2\SC(=S)N(CCC(=O)NC3C=CS(=O)(=O)C3)C2=O)c1 (stereo not given) | inconclusive: 23.1 µM [activator, partial curve, poor fit] |
| CCN(CC)CCNC(=O)C(Cl)=C1C(Cl)=C(Cl)C(Cl)=C1Cl | active: 11.6 µM |
| COC(=O)C(=C/C(C)=C/c1cccs1)C(=O)OC | inconclusive: 23.1 µM [activator, single point] |
| CCN(CC(=O)NCc1cccs1)S(=O)(=O)c1ccccc1Cl | inconclusive: 18.4 µM [activator, single point] |
| Cc1ccc(S(=O)(=O)N2CCOCC2)s1 | inactive |
| CCN(CC)CCCN(Cc1cc2cc3c(cc2[nH]c1=O)OCO3)C(=O)Nc1ccccc1OC | inconclusive: 18.4 µM [activator, partial curve, poor fit] |
| C=CCNC(=O)CN1CCN(C(c2ccccc2)c2ccccc2)CC1 | inactive |
| Cc1cccc(N2CCN(C(=O)C3CC(=O)N(c4ccc5c(c4)OCCO5)C3)CC2C)c1 (stereo not given) | inconclusive: 29.1 µM [activator, single point] |
| Cc1ccc(S(=O)(=O)N2CCC(=O)N(C(COCc3cccc(C)c3)C(C)C)CC2)cc1 (stereo not given) | inconclusive: 25.9 µM [activator, partial curve, poor fit] |
| OCCNc1nc(Nc2ccccc2Oc2ccccc2)nc(N2CCCC2)n1 | inconclusive: 29.1 µM [activator, single point] |
| CCn1ncc(/C=N\NC(=O)COc2cc(C)cc(C)c2)c1C | inconclusive: 29.1 µM [activator, single point] |
| CC(=O)c1oc2ccccc2c1N | inactive |
| CCN(CCN1CCCC1)C(=O)c1cc(COc2ccccc2SC)on1 | inconclusive: 29.1 µM [activator, single point] |
| CCn1c(SCC(=O)Nc2ccc(Cl)cc2)nc2nc3c(cc2c1=O)CCCC3 | inconclusive: 29.1 µM [activator, partial curve, poor fit] |
| COC(=O)c1cc2c(C)c(C)c3ccccn3c-2c1C(=O)OC | inactive |
| Cc1cc(C)c(NC(=O)CSc2nnc(CNC(=O)c3c(F)cccc3Cl)o2)c(C)c1 | inconclusive: 2.31 µM [activator, full curve, poor fit] |
| CCCCOc1ccccc1C1C(C(=O)OC)=CN(CC)C=C1C(=O)OC | active: 11.6 µM |
| C=CCn1c(=NC(=O)c2sc3ccccc3c2Cl)sc2cc(S(N)(=O)=O)ccc21 | inconclusive: 29.1 µM [activator, single point] |
| CC(C)(C)NC(=O)CSc1nnc(-c2ccccc2)c(-c2ccccc2)n1 | inactive |
| CCN(CC)c1ccc(/C=N/NC(=S)NCc2ccccc2)cc1 | inconclusive: 18.4 µM [activator, partial curve, poor fit] |
| CCOC(=O)N1CCN(C(=O)CS(=O)(=O)c2cn(Cc3ccc(Cl)cc3)c3ccccc23)CC1 | inactive |
| O=C(NCC(=O)N(c1ccccc1F)C(C(=O)NC1CCCC1)c1cccnc1)c1ccco1 (stereo not given) | inactive |
| COc1ccc(/C=N/n2c(N)nc(-c3ccccc3)c2-c2ccccc2)cc1 | inconclusive: 29.1 µM [activator, single point] |
| COc1ccc(NC(=O)CSc2nc3ccccc3nc2N2CCCC2)cc1 | inactive |

Reformatted as labelled records: part of the list above
Cc1cccc(NC(=O)c2oc(=O)c3ccccc3c2-c2ccccc2)c1C
  Potency: inconclusive: 29.1 µM [activator, single point]
COc1cc(/C=N/NC(=O)c2cc(C34CC5CC(CC(C5)C3)C4)[nH]n2)ccc1O
  Potency: inactive
N#Cc1c(N)c(C#N)c(-c2ccc3c(c2)OCO3)c2c1CCCC2
  Potency: inactive
CCCCc1ccc(NC(=O)CSc2nc(=O)n(CCN(CC)CC)c3c2CCCC3)cc1
  Potency: inconclusive: 29.1 µM [activator, single point]

Carrying on:

| SMILES | Potency |
| --- | --- |
| CCCCc1cc(=O)oc2cc(O)ccc12 | inconclusive: 29.1 µM [activator, partial curve, poor fit] |
| Cc1ccnc(N2CCN(c3cc(C)c(C#N)c4nc5ccccc5n34)CC2)c1 | inconclusive: 10.3 µM [activator, partial curve, poor fit] |
| c1ccc(CSc2nnc(-c3cccs3)n2Cc2ccco2)cc1 | inactive |
| CCOC(=O)c1cnc(Nc2nc3ccccc3o2)nc1CSC(=S)N(CC)CC | inconclusive: 2.91 µM [activator, full curve] |
| CCc1ccc(N(C2C=CS(=O)(=O)C2)S(=O)(=O)c2ccccc2)cc1 (stereo not given) | inconclusive: 18.4 µM [activator, partial curve, poor fit] |
| Cc1ccc(OCC(=O)N/N=C/C=C/c2ccco2)c(Br)c1 | active: 16.4 µM |
| Cc1ccc2c(c1)C(C)CC(C)(C)N2C(=O)CN1CCN(C)CC1 (stereo not given) | inconclusive: 0.58 µM [activator, full curve, poor fit] |
| CC(=O)c1cccc(NC(=O)CNC(=O)c2cc3ccccc3o2)c1 | inconclusive: 18.4 µM [activator, partial curve] |
| Oc1ccc(-c2cnns2)c(O)c1 | inconclusive: 29.1 µM [activator, partial curve, poor fit] |
| O=C(CNS(=O)(=O)c1ccccc1)NNC(=O)C(Cl)Cl | inactive |
| CCN(CC(=O)Nc1c(F)cccc1F)C(=O)C1=COCCO1 | inactive |
| O=C(CN1c2ccccc2Sc2ccccc21)NNC(=O)Nc1ccc(Cl)cc1 | inconclusive: 29.1 µM [activator, single point] |
| CC(C)CNC(=O)c1cccc(NC(=O)CCc2ccccc2)c1 | inactive |
| CCOc1ccc(C(=O)/C=C/c2ccc(OC)c(OC)c2)cc1 | inconclusive: 23.1 µM [activator, single point] |
| Cc1cc(C)cc(C(=O)NC(=S)Nc2ccc3c(c2)OCCO3)c1 | inactive |
| O=C(Nc1ccc(C(=O)O)cc1)/C(=C\c1ccc(F)cc1)NC(=O)c1ccco1 | inactive |
| CC(C)Oc1cccc(C(=O)NC(=S)Nc2ccccc2)c1 | inactive |
| Cc1ccc(-c2c[n+](CC(=O)Nc3nc(-c4ccc(F)cc4)cs3)c3n2CCC3)cc1 | inactive |
| C/C(=N/NC(=O)c1cccs1)c1ccc(NC(=O)COc2ccc(Cl)cc2)cc1 | inconclusive: 6.51 µM [activator, partial curve] |
| CN1CCN(C(=O)CCN2C(=O)/C(=C\c3ccc(F)cc3)SC2=S)CC1 | inconclusive: 18.4 µM [activator, single point] |
| COc1ccc(F)c(CN2CCC(N3CCC(C(=O)N4CCOCC4)CC3)CC2)c1 | inactive |
| Cc1ccnc2nc(C(=O)OCC(=O)NC3CCCC(C)C3C)nn12 (stereo not given) | inconclusive: 0.146 µM [activator, full curve, poor fit] |
